These are yes or no findings as the source states them, for the method shown. Some results given as binding are weak or reduced against the parent protein; the word gives no strength. Where a sequence is shown, tags or fusion partners need not be part of it.
Biological target: T1, recombinant human GPC2 protein tagged with PE (human) (UniProt Q8N158)
T1 sequence (PE (phycoerythrin) tag, looked up): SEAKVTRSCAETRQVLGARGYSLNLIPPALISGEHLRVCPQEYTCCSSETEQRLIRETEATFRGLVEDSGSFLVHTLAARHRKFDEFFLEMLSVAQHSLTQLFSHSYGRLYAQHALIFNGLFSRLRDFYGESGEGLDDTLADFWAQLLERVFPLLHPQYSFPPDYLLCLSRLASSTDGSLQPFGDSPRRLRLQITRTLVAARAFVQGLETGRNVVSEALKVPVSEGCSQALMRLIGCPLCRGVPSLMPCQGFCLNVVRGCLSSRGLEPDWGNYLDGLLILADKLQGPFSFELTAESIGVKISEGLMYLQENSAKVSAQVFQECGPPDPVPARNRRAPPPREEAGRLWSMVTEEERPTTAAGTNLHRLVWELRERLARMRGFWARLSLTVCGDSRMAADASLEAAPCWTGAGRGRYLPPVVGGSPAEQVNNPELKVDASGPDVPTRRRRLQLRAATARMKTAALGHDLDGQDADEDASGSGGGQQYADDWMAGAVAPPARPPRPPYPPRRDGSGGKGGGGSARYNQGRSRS
Test: flow cytometry of transduced human primary T cells (day 14) stained with PE-tagged rhGPC2

B1: GPC2-targeting chimeric antigen receptor (D3 scFv, CD28 hinge/transmembrane/co-stimulatory domains, CD3 zeta) on human primary T cells (protein)
chain: PDIQMTQSPSTLSAFVGDRVTITCRASQSISSWLAWYQQKPGKAPKLLIYAASTLQSGVPSRFSGSGSGTEFTLTISSLQPEDFATYYCQQLNSYPITFGQGTRLEIKRGGGGSGGGGSGGGGSEVQLVETGGGVVKPGGSLRLSCAASGFTFSDYYMSWIRQAPGKGLEWVSYISSSGSTIYYADSVKGRFTISRDNSKNTLYLQMNSLRAEDTAVYYCARESGYDYVFDYWGQGTLVAVSSIEVMYPPPYLDNEKSNGTIIHVKGKHLCPSPLFPGPSKPFWVLVVVGGVLACYSLLVTVAFIIFWVRSKRSRLLHSDYMNMTPRRPGPTRKHYQPYAPPRDFAAYRVKFSRSADAPAYKQGQNQLYNELNLGRREEYDVLDKRRGRDPEMGGKPRRKNPQEGLYNELQKDKMAEAYSEIGMKGERRRGKGHDGLYQGLSTATKDTYDALHMQALPPR
  binding: binds

Reference: US20250032543A1 (CHILDREN S HOSPITAL OF PHILADELPHIA, published 2025)
